The supplement of paper PMC7666118
This is one part of the list.

Sequences of proteins named here, by UniProt entry; tags and fusion partners are left off. A change or cut given only in a name is not applied to a line headed by its entry.
UniProt Q13630: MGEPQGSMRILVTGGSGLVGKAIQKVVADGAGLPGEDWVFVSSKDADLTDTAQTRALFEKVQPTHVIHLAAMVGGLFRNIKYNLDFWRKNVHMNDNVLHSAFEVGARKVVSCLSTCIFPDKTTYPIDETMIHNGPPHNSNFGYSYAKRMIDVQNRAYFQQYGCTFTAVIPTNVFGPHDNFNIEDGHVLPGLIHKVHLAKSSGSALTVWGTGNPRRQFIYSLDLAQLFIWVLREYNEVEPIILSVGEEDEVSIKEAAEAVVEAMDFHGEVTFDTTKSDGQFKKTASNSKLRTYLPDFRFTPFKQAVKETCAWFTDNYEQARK
UniProt P14927: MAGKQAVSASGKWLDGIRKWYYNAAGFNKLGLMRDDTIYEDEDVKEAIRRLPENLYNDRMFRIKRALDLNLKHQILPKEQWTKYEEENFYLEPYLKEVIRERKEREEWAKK
UniProt Q86UV5: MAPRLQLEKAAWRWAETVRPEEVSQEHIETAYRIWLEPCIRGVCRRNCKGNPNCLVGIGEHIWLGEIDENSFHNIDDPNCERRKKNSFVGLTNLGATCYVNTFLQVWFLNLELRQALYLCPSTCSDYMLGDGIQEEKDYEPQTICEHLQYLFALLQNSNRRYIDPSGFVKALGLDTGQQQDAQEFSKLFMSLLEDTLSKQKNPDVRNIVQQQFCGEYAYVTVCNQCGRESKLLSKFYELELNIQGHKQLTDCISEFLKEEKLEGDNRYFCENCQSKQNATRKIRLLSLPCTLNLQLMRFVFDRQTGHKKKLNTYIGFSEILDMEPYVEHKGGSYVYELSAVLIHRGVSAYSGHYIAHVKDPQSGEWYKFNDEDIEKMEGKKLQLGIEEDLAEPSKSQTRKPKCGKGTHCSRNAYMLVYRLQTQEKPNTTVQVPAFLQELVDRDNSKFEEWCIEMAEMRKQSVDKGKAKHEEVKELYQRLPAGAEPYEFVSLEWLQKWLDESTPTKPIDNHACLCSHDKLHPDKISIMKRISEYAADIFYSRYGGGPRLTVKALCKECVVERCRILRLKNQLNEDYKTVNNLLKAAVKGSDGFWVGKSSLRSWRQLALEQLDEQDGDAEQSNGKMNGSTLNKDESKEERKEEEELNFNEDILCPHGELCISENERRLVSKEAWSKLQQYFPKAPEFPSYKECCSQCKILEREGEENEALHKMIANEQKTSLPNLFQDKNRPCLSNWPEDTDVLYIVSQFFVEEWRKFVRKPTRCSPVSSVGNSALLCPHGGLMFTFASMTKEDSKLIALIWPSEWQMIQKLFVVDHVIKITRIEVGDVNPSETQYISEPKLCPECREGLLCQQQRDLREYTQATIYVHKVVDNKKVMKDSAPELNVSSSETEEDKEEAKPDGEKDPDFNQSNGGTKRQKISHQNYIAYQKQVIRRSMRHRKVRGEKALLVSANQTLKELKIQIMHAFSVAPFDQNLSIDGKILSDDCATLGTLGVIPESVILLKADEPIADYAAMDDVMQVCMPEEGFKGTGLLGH
UniProt O75865, whole entry: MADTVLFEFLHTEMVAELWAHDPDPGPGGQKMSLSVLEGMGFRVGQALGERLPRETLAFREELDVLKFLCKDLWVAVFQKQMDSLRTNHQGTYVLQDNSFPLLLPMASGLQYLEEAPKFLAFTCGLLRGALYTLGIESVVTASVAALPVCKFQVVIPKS
UniProt Q8IX04: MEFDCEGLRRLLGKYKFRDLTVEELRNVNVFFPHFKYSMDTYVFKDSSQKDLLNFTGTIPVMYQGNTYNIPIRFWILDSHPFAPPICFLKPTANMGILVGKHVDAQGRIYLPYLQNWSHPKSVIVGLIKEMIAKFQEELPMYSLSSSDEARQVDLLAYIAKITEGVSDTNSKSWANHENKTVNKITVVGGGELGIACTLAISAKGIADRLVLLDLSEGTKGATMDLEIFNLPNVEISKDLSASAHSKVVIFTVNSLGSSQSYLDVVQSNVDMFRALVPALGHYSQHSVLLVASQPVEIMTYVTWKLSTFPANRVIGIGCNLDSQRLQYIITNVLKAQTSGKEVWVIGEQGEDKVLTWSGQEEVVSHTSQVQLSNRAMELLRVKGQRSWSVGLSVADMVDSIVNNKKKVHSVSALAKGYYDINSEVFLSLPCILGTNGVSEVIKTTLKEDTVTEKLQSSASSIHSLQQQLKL
UniProt Q9NPD8: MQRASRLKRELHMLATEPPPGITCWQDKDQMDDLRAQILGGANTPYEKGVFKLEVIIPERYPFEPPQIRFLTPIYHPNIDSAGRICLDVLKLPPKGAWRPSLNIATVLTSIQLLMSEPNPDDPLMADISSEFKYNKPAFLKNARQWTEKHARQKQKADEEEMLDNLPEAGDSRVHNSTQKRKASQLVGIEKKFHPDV
UniProt Q13595: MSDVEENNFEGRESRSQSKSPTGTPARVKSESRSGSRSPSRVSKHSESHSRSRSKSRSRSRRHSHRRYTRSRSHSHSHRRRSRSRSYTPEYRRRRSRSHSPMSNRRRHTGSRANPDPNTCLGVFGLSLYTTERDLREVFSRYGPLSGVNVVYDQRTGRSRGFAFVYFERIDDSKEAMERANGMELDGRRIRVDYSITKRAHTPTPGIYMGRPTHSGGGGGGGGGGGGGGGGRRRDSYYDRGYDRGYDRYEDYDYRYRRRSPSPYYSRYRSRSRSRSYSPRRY
UniProt Q14139: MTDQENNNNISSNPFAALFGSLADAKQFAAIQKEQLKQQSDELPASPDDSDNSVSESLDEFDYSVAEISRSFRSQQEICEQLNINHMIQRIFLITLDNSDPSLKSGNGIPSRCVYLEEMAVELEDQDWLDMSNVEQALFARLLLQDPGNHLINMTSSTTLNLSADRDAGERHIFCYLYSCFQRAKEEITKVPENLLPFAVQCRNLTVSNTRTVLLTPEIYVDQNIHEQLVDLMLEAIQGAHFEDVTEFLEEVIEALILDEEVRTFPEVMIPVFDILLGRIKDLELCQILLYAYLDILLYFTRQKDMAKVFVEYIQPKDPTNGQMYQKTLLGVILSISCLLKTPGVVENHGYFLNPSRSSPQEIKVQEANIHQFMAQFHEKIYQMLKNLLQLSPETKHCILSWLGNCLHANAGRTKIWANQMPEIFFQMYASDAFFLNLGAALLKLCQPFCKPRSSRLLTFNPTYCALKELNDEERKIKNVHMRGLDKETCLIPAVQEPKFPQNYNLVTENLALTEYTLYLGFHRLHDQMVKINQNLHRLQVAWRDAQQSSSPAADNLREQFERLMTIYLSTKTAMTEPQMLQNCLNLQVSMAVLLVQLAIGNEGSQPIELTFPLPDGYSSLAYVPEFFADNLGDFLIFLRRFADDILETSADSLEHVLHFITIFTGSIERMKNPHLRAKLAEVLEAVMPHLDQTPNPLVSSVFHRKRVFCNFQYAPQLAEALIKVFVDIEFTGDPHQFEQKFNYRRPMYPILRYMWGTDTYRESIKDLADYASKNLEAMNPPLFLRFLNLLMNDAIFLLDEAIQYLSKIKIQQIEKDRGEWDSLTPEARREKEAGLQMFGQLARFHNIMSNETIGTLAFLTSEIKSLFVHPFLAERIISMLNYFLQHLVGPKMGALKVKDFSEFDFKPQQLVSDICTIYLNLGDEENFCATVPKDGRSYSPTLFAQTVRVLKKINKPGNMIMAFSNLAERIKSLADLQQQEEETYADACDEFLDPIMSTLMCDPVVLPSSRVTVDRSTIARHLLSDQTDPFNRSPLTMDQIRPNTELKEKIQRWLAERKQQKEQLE
UniProt Q15650: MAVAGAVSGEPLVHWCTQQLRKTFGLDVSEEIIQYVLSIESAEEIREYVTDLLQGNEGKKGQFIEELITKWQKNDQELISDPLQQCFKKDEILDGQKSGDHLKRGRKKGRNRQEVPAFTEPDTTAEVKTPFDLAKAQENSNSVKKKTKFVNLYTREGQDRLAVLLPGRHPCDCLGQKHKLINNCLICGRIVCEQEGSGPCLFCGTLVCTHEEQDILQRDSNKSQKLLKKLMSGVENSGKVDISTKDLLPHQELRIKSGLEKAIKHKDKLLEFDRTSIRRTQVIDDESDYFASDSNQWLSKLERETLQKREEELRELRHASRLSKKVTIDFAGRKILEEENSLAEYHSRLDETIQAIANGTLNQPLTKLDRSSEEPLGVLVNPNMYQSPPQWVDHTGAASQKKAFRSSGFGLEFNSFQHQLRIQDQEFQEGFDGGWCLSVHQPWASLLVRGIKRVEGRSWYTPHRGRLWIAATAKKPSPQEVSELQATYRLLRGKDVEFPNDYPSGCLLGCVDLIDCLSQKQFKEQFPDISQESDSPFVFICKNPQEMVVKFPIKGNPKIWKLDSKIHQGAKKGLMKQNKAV
UniProt Q9NWZ5: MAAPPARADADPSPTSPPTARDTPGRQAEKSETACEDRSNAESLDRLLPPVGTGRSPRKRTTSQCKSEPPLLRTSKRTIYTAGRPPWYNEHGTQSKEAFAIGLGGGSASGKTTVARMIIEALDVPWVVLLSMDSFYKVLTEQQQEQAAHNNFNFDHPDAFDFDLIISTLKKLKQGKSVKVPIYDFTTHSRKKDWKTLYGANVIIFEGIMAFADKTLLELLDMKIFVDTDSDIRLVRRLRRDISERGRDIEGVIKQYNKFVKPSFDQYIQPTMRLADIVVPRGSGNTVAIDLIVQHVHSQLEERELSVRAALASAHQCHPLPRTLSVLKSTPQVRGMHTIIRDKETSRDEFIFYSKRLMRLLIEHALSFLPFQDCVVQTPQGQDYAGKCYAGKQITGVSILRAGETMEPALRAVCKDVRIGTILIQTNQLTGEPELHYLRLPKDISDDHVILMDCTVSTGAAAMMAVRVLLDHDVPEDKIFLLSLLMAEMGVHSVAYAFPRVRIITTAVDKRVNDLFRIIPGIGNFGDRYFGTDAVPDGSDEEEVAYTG
UniProt P49815: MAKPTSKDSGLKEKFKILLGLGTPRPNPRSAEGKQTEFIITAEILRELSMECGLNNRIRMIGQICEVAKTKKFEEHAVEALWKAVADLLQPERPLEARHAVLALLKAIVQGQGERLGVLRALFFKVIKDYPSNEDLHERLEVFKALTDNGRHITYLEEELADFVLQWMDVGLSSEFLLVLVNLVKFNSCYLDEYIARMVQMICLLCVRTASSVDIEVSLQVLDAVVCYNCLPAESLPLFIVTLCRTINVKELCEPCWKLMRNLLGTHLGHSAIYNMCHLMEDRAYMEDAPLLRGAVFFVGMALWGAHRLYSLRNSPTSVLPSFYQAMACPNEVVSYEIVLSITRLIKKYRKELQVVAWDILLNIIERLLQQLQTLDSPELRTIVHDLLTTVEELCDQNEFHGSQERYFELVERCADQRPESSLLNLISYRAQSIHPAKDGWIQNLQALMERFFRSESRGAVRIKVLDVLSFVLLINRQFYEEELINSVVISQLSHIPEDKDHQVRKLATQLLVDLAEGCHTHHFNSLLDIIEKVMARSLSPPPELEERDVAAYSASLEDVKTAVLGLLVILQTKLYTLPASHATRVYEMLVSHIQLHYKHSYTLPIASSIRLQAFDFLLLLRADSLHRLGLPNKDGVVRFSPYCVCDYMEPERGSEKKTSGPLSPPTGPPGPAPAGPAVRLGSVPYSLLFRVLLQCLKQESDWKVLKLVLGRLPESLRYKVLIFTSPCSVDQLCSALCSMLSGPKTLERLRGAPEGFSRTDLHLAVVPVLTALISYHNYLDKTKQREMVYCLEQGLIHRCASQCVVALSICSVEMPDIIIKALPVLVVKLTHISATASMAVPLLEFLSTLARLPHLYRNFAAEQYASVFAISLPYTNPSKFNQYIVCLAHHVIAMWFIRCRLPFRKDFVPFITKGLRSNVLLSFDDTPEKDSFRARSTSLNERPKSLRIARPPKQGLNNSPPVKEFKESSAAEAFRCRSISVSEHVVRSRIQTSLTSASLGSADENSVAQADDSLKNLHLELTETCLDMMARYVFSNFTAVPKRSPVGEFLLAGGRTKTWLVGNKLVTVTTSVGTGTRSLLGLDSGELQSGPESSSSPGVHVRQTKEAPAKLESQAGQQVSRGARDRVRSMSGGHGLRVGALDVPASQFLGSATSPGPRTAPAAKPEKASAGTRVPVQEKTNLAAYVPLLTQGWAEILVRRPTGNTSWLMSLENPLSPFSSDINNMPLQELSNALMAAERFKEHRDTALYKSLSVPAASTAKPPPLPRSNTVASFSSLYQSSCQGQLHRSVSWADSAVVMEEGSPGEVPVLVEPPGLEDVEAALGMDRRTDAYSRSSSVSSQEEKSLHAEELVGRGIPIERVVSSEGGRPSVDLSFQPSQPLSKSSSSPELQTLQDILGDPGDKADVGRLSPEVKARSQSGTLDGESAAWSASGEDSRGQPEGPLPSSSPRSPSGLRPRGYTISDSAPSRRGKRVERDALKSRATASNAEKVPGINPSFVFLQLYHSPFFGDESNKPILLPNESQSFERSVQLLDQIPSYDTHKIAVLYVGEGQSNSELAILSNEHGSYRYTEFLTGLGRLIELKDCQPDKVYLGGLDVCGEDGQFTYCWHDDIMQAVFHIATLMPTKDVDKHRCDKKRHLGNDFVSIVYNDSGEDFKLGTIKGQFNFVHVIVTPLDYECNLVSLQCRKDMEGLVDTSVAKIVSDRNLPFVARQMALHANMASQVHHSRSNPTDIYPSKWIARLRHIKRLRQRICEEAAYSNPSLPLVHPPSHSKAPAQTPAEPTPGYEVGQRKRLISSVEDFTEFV

compound: COc1ccc(Cn2ccc3ccc(C(=O)NO)cc32)cc1; assay: dose-dependent thermal stabilisation call (2D-TPP, DLPTP, 10% FDR) (binary (1 = stabilised)); higher = stabilised by the compound; details: system: HL-60 intact cells; concentration range 0.04-10 µM

Row | Target | dose-dependent thermal stabilisation call
1 | UBE2V2 (UniProt Q15819) | inactive: 0
2 | TUBE1 (UniProt Q9UJT0) | inactive: 0
3 | TRMT2A (UniProt Q8IZ69) | inactive: 0
4 | TSTA3 (UniProt Q13630) | inactive: 0
5 | USP4 (UniProt Q13107) | inactive: 0
6 | TXNRD2 (UniProt Q9NNW7) | inactive: 0
7 | UBE4B (UniProt O95155) | inactive: 0
8 | USP47 (UniProt Q96K76) | inactive: 0
9 | TRMT2B (UniProt Q96GJ1) | inactive: 0
10 | USP10 (UniProt Q14694) | inactive: 0
11 | UQCRB (UniProt P14927) | inactive: 0
12 | UNC13D (UniProt Q70J99) | inactive: 0
13 | TXNIP (UniProt Q9H3M7) | inactive: 0
14 | UPF3B (UniProt Q9BZI7) | inactive: 0
15 | USP48 (UniProt Q86UV5) | inactive: 0
16 | TRAPPC6A (UniProt O75865) | inactive: 0
17 | UEVLD (UniProt Q8IX04) | inactive: 0
18 | UBXN1 (UniProt Q04323) | inactive: 0
19 | TPT1 (UniProt P13693) | inactive: 0

A different layout for some results above.
TSTA3 (UniProt Q13630)
  dose-dependent thermal stabilisation call: inactive: 0
USP4 (UniProt Q13107)
  dose-dependent thermal stabilisation call: inactive: 0

Further records follow:

Row | Target | dose-dependent thermal stabilisation call
20 | UBP1 (UniProt Q9NZI7) | inactive: 0
21 | TUBA1A (UniProt Q71U36) | inactive: 0
22 | TYW1 (UniProt Q9NV66) | inactive: 0
23 | UHRF1 (UniProt Q96T88) | inactive: 0
24 | UBA1 (UniProt P22314) | inactive: 0
25 | TXN (UniProt P10599) | inactive: 0
26 | TXNDC16 (UniProt Q9P2K2) | inactive: 0
27 | UBE2T (UniProt Q9NPD8) | inactive: 0
28 | TRA2A (UniProt Q13595) | inactive: 0
29 | UBE4A (UniProt Q14139) | inactive: 0
30 | TRIP4 (UniProt Q15650) | inactive: 0
31 | TREX1 (UniProt Q9NSU2) | inactive: 0
32 | TRIM21 (UniProt P19474) | inactive: 0
33 | UCKL1 (UniProt Q9NWZ5) | inactive: 0
34 | TSC2 (UniProt P49815) | inactive: 0
35 | TSPAN4 (UniProt O14817) | inactive: 0
36 | TRMT5 (UniProt Q32P41) | inactive: 0
37 | TSC1 (UniProt Q92574) | inactive: 0
